Results as given in publication PMC3541368.
These are yes or no findings as the source states them, for the method shown. In cells and extracts the contact can be indirect. Binding can be weak; no strength is given.

Sequences of proteins named here, by UniProt entry; tags and fusion partners are left off. A change or cut given only in a name is not applied to a line headed by its entry.
UniProt Q02078: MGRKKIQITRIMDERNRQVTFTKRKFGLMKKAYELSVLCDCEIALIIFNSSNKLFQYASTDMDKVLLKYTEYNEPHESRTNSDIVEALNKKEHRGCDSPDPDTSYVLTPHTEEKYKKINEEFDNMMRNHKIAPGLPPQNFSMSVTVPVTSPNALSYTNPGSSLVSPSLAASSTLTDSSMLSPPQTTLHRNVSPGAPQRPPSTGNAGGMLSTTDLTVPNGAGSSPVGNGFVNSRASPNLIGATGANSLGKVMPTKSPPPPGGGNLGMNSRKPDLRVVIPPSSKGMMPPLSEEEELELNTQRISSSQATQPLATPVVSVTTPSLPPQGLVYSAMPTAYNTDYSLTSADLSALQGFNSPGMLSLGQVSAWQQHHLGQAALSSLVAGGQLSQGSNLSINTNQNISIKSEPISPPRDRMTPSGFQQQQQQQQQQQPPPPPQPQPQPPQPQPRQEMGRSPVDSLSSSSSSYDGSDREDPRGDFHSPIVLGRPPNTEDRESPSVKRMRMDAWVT

Legend:
Experiment in all cases: co-IP; anti-M2 FLAG beads, FLAG-Gβ2/mutants and MEF2-expressing cells; immunoblot quantified (Kodak Imager), n = 3
[1] = molecular target: FLAG-Gβ2 ΔWD1 (human) (UniProt P62879)
[2] = molecular target: FLAG-Gβ2 ΔWD2 (human) (UniProt P62879)
[3] = molecular target: FLAG-Gβ2 ΔWD3 (human) (UniProt P62879)
[4] = molecular target: FLAG-Gβ2 ΔWD4 (human) (UniProt P62879)
[5] = molecular target: FLAG-Gβ2 ΔWD5 (human) (UniProt P62879)
[6] = molecular target: FLAG-Gβ2 ΔWD6 (human) (UniProt P62879)
[7] = molecular target: FLAG-Gβ2 ΔWD7 (human) (UniProt P62879)

binding [1]: binds | binding [2]: binds | binding [3]: binds | binding [4]: binds | binding [5]: binds | binding [6]: binds | binding [7]: binds
Substance: MEF2A in 'FLAG-Gβ2/mutants and MEF2-expressing cells' (from UniProt Q02078 1-507)
